From US20180104307A1 (University of California, published 2018)
These are yes or no findings as the source states them, for the method shown. In cells and extracts the contact can be indirect. Some entries that bind do so weakly or less than the wild type. Sequences can lack the tags named with a protein.

The chains behind the UniProt entries cited, without tags or fusion partners. Residues count along the entry.
UniProt P35570, residues 2-516: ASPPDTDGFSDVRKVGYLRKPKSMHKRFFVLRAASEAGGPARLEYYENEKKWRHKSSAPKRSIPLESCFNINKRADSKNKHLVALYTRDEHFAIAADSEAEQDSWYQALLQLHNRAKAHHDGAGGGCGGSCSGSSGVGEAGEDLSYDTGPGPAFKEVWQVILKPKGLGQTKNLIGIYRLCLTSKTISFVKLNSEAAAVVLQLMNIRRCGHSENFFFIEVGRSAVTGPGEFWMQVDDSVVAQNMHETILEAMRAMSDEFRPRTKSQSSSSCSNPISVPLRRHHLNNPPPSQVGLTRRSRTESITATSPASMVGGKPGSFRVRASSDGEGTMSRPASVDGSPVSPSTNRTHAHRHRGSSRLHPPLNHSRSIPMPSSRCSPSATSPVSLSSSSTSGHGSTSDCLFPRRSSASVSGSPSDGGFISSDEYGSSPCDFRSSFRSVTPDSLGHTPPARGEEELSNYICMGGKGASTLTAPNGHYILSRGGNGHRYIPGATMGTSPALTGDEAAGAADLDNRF

Columns and labels:
[1] = target: GST-tagged IRS1-N (aa 2-516) (UniProt P35570); experiment: GST pulldown with GST-IRS1-N, anti-His immunoblot
[2] = target: GST-tagged IRS1-N (aa 2-516) (UniProt P35570); experiment: GST pulldown with GST-IRS1-N (FIG. 19A)

B1: His-tagged GIV-CT-SD (protein, not shown: small tags and cut ends)
chain: SETLESRHHKIKTGSPGSEVVTLQQFLEEDNKLTSVQIKSSSQENLLDEVMKSLSVSSDFLGKDKPVSCGLARSVSGKTPGDFYDRRTTKPEFLRPGPRKTEDTYFISSAGKPTPGTQGKIKLVKESSLSRQSKDSNPYATLPRASSVISTAEGTTRRTSIHDFLTKDSRLPISVDSPPAAADSNTTAASNVDKVQESRNSKSRSREQQSS
[1]
  binding: binds
[2]
  binding: binds
